Source: article PMC8629785
These are yes or no findings as the source states them, for the method shown. In cells and extracts the contact can be indirect. For some assays here: Binding can be weak; no strength is given. Sequences can lack the tags named with a protein.

Key:
HA-GLYT1 = target: T1, HA-GLYT1 (UniProt P28572); assay: co-IP; HEK293 cells transiently co-transfected with tagged proteins, 48 h; solubilised in RIPA buffer (0.1% SDS, 1% Triton X100, 0.5% sodium deoxycholate, 150 mM NaCl), in some panels a modified RIPA without SDS or with rising SDS (diluted to 0.1% before IP); antibody to the tag overnight at 4 °C, protein A or G agarose, western blot
T1 sequence: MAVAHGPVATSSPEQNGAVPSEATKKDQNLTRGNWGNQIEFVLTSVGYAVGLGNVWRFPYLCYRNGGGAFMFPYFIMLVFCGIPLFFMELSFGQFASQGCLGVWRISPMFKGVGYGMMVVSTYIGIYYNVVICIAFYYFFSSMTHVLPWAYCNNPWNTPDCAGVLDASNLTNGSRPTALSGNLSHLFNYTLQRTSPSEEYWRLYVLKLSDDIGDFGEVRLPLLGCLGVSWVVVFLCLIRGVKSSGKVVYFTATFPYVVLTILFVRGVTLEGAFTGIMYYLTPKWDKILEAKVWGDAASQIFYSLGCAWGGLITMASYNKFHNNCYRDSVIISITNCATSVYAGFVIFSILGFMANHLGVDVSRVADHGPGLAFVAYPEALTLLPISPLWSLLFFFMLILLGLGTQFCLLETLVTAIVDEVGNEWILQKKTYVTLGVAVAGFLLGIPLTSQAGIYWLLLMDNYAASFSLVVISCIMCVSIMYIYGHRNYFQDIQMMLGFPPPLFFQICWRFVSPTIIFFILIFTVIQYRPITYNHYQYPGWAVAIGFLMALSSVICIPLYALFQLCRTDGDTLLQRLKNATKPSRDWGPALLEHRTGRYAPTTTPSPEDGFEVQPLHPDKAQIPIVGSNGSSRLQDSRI

HA-GLYT2 = target: T2, HA-GLYT2 (UniProt P58295); assay: as above
T2 sequence: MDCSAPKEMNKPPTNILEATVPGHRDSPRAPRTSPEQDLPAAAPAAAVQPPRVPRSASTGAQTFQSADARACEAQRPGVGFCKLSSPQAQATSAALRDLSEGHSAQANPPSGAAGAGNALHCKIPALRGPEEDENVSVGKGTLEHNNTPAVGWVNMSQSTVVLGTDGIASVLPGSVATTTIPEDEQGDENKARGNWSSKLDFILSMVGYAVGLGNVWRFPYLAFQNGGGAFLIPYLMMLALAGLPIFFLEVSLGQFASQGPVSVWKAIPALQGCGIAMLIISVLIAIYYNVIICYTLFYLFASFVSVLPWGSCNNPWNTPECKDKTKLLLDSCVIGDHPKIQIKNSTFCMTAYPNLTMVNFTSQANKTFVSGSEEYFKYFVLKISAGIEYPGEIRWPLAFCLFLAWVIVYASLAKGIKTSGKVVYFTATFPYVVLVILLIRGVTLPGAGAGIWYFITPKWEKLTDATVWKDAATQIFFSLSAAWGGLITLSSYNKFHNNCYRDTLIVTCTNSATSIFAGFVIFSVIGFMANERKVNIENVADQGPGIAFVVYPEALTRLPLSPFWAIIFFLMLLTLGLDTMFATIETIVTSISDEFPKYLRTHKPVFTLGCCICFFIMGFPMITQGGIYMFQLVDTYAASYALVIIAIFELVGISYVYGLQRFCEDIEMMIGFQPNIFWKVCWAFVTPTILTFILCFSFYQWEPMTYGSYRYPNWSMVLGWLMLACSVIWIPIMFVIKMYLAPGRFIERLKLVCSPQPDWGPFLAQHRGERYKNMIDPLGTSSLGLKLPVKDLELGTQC

binding (HA-GLYT1): no binding | binding (HA-GLYT2): binds
Substance: myc-4F2hc WT (human)
